From patent US20100249022A1
These are yes or no findings as the source states them, for the method shown. Some binding calls cover weakened binding; strength is not graded here.

Protein sequences, listed by entry. Tags and fused reporters are not part of them. Residues count along the entry.
UniProt P13501, residues 24-91: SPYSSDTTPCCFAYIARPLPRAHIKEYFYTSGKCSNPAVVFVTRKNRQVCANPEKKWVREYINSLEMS

Target: exCCR5-6xHis (human)
Assay: pull down

**Q.** Which binding does the source give for “RANTES (CCL5) (from UniProt P13501 24-91) (ligand)” here?
**A.** Its binding is “binds”.
